Assay results: publication PMC4600982
No constants are given. Whether binding was seen depends on the method and setting. Binding seen in cells or lysates may run through a third protein. Some entries that bind do so weakly or less than the wild type.

Protein sequences, listed by entry. Tags and fused reporters are not part of them.
UniProt P02795: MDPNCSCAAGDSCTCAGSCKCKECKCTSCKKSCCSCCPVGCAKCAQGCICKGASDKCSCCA

Molecular target: GFP-tagged metallothionein 2A (MT2A), pEGFP-MT2A (UniProt P02795)
Assay: co-IP; HEK293 cells transfected with pEGFP or pEGFP-MT2A for 48 h; lysis in 150 mM NaCl, 20 mM Tris-HCl pH 7.5, 1% Triton X-100; specific antibodies or normal IgG, protein A/G beads overnight at 4 C; western blot

- binding: binds
B1: Homeobox containing 1 (HMBOX1) in HEK293 cells (protein, UniProt Q6NT76 1-420)
chain: MLSSFPVVLLETMSHYTDEPRFTIEQIDLLQRLRRTGMTKHEILHALETLDRLDQEHSDKFGRRSSYGGSSYGNSTNNVPASSSTATASTQTQHSGMSPSPSNSYDTSPQPCTTNQNGRENNERLSTSNGKMSPTRYHANSMGQRSYSFEASEEDLDVDDKVEELMRRDSSVIKEEIKAFLANRRISQAVVAQVTGISQSRISHWLLQQGSDLSEQKKRAFYRWYQLEKTNPGATLSMRPAPIPIEDPEWRQTPPPVSATSGTFRLRRGSRFTWRKECLAVMESYFNENQYPDEAKREEIANACNAVIQKPGKKLSDLERVTSLKVYNWFANRRKEIKRRANIEAAILESHGIDVQSPGGHSNSDDVDGNDYSEQDDSTSHSDHQDPISLAVEMAAVNHTILALARQGANEIKTEALDDD
